Experimental data as given in US8802674B2, “Aminopyrimidine derivatives as LRRK2 modulators” (Genentech, Inc., priority 2011, dated 2014).
The structures given here were assigned with low confidence; some may be wrong.

Amino acid sequences for entries named in this document (tags omitted). Residues count along the entry.
UniProt Q5S007, 970-2527 G2019S limits assumed: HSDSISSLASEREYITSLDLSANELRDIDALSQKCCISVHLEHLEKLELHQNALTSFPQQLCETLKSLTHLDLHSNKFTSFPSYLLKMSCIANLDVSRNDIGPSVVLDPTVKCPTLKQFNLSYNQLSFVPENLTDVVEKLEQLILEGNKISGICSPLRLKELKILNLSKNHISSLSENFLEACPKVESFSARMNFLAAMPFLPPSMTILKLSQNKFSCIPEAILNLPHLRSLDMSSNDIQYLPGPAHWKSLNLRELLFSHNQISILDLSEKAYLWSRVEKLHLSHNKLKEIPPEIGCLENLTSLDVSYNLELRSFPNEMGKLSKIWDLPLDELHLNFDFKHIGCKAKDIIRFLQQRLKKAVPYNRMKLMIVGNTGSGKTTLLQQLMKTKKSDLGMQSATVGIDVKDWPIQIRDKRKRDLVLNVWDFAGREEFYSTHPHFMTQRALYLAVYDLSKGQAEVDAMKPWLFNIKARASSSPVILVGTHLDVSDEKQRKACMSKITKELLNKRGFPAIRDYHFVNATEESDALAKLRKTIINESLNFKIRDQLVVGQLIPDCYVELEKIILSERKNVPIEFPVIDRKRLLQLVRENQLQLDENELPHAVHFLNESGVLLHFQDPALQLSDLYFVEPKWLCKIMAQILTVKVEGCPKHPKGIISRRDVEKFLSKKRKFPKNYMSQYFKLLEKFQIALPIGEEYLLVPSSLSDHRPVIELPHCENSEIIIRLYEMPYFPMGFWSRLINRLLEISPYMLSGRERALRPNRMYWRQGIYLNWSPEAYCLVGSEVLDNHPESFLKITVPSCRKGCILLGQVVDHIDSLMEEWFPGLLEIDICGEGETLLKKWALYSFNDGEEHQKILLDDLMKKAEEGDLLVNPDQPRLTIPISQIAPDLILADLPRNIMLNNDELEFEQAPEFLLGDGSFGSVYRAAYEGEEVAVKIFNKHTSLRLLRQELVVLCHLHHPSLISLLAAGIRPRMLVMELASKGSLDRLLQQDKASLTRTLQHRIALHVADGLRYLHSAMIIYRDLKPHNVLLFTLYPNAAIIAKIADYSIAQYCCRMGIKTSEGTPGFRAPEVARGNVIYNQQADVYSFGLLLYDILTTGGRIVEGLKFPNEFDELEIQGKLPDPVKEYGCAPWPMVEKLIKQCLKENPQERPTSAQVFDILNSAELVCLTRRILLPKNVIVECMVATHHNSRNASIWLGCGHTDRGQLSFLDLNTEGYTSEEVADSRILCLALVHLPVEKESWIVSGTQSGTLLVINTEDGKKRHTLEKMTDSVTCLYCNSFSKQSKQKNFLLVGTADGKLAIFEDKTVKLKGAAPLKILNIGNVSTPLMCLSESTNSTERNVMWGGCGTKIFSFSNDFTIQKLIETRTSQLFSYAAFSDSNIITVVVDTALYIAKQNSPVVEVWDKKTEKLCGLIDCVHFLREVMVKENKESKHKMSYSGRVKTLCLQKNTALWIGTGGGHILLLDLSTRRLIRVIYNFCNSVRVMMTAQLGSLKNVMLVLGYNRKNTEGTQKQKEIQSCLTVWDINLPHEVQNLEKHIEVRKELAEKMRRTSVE

Target: LRRK2 (Homo sapiens (Human), UniProt Q5S007, G2019S)
Assay: In Vitro LRRK2 LabChip Assay
Conditions: read-out: LRRK2 Ki (KI); Table 6

Row | SMILES | Ki
1 | CNc1nc(Nc2ccc(C(=O)N3CC4CC3CO4)cc2OC)ncc1C(F)(F)F (centres unmarked) | 3.3 nM
2 | CNc1nc(Nc2ccc(C(=O)NC3CC(F)(F)C3)cc2OC)ncc1C(F)(F)F | 1.5 nM
